From PMC10707054

The chains behind the UniProt entries cited, without tags or fusion partners.
UniProt Q01082: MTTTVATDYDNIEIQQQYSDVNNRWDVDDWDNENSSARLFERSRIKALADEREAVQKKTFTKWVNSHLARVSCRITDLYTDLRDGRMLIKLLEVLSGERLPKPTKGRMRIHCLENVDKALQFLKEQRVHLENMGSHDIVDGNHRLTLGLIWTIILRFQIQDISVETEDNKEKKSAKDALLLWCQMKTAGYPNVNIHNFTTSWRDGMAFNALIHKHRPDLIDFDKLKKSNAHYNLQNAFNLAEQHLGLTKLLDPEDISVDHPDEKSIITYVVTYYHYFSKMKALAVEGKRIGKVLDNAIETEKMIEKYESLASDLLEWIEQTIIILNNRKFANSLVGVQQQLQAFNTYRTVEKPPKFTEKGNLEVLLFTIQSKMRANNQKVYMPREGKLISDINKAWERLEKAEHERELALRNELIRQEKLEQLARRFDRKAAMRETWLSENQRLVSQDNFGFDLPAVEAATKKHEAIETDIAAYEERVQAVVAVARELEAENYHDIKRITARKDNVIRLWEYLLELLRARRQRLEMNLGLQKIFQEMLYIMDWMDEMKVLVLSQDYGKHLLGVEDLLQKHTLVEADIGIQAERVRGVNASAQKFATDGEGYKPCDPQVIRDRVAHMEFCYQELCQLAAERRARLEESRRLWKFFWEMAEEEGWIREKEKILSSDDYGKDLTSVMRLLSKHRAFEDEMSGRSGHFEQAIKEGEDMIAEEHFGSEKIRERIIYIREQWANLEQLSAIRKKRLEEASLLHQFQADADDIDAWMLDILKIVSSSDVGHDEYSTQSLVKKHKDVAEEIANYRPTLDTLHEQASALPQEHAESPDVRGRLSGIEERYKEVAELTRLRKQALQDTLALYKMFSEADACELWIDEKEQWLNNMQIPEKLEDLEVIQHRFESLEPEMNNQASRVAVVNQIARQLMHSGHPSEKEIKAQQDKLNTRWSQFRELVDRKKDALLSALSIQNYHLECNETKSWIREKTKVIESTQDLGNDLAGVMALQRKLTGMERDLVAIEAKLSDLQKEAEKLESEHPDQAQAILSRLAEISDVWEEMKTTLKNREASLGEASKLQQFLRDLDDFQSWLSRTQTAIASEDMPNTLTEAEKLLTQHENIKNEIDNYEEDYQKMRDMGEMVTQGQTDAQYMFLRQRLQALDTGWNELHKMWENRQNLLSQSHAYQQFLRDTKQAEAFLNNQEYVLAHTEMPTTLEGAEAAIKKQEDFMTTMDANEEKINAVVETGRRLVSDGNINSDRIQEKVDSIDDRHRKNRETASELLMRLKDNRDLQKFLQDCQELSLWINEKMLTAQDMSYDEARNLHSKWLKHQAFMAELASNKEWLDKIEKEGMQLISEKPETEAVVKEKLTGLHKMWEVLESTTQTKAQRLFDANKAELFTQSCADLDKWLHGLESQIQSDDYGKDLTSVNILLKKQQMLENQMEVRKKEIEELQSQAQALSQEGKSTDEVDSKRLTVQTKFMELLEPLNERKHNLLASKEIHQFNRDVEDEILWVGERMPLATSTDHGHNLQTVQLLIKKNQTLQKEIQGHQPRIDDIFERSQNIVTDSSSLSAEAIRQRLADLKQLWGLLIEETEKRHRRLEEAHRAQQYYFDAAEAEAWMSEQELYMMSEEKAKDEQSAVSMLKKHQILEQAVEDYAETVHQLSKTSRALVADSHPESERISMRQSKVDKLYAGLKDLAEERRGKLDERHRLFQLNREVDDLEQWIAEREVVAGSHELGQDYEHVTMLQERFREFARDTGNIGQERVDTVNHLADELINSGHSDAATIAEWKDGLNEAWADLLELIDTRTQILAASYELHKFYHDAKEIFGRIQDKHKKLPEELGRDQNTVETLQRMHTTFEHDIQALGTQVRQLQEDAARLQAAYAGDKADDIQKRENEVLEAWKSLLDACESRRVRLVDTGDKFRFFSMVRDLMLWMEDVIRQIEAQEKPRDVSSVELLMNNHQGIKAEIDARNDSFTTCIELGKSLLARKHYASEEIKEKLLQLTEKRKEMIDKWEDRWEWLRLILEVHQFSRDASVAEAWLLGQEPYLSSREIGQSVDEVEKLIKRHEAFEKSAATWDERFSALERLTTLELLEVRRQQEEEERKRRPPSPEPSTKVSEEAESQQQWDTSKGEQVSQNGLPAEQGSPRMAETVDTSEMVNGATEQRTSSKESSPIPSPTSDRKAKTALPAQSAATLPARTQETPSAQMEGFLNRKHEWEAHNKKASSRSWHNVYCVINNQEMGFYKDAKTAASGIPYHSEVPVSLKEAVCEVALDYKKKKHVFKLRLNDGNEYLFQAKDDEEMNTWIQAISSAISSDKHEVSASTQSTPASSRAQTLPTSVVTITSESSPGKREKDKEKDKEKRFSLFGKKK

Target: T1, Pituitary tumor-transforming gene 1 (PTTG1) (human (endogenous in JKT-1, SEM-1 and TCAM2)) (UniProt O95997)
T1 sequence: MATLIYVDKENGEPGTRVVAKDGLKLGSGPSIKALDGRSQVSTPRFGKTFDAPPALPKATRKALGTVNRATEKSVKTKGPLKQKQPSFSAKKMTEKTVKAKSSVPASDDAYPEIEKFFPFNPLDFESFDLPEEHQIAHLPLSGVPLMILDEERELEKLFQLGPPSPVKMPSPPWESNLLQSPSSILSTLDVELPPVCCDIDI
Assay: affinity purification with mass spectrometry; PTTG1 immunoprecipitated overnight at 4 °C from TCAM2 lysate with anti-PTTG1 antibody cross-linked to Tosyl-activated Dynabeads (lysis buffer Hepes 20 mM, NaCl 250 mM, EDTA 0.5 mM, Nonidet P-40 0.25%); SDS-PAGE, band at 250 kDa cut out, in-gel tryptic digestion, HPLC-ESI-MS/MS

binding | Substance
binds | Spectrin-αII-chain (SPTAN1) (from UniProt Q13813 1-2472)
binds | Spectrin-βII-chain (SPTBN1) (from UniProt Q01082 1-2364)

Results are given in words; binding and its absence hold for the method and conditions named. Binding seen in cells or lysates may run through a third protein. Here binding means that the protein was enriched with, or labelled near, the bait; the list need not be complete.
